Test results as given in the supplement of paper PMC3334620.
In all, about 33,000 sequences were measured (“E-score (-0.5 to 0.5)”: median about -8e-05, highest 2% from about 0.23 on). Some of the results follow.

The sequences below were run against T1, Nrg2 (UniProt P38082) (assay: PBM E-score (8-mer binding enrichment) (E-score (-0.5 to 0.5)); higher = stronger / more preferred TF binding). Conditions: protein concentration: 100 nM; construct: GST-full length.
T1 sequence: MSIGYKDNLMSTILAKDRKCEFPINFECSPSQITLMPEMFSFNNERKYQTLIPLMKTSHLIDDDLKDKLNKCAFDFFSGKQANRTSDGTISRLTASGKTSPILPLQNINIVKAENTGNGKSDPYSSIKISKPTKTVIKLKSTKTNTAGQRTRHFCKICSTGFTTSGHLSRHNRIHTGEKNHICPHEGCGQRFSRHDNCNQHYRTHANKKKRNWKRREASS
Method in brief: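 Universal all-10-mer Agilent arrays, fresh or stripped once, were converted to double-stranded form by primer extension. GST-tagged yeast transcription factors from PURExpress in vitro transcription/translation, full-length or DNA-binding domain only, were applied at about 100-200 nM and detected with fluorescent anti-GST. After masliner normalisation, the Universal PBM Analysis Suite scored each ungapped eight-base word together with its reverse complement by E-score.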

Sequence	PBM E-score
CACTGAGA	-0.162
AGCGCGTA	0.18
GCGGACGA	-0.0348
ACCTGAAG	-0.117
AAATAGGT	0.0575
AGTAAACT	0.0528
TAAATTGA	0.128
ATCCCGAA	0.191
AGAGCATG	-0.0876
AATGTTCT	-0.0628
CTACTAAG	0.0704
GTAGTCTA	-0.118
CGGTACTA	-0.163
TGCATACA	0.147
GATATAAA	0.0967
GATTATGC	0.162
ACGGCAAC	0.0905
CCCGAGCG	-0.0411
AAGAACCT	0.0278
CTATGTCA	-0.0385
ACTATTGG	-0.144
CCTAATGA	-0.00353
CGTTGAGA	-0.0119
ACAACTTG	0.129
AGGCTTTC	-0.0102

Sequence	PBM E-score
ACCCTTGC	0.268
ACACCACA	0.103
CTAACGTA	0.0221
GGTATCTA	0.00237
GTAATTAA	0.0301
AGAGTGAC	-0.229
TCATATGA	0.21
ACGCTCTC	-0.0676
GGAAACGA	0.0585
AAGCAGCC	-0.116
AGAATTAA	-0.0858
TCCGCCGA	0.102
AACCGGTT	0.0107
AATGCCAT	0.0483
CAGGTCAG	0.123
GCAGGTCA	0.0617
AACCGGGT	0.00463
ACACAGAA	0.184
CCGGGCCG	-0.181
TATCCAGA	0.00794
AACAGAAC	0.0721
TAGAAGGA	-0.244
AGGCTCTG	-0.178
CACCTTAC	-0.098
ATAGCGTG	0.111

Sequence	PBM E-score
ATTGATTC	0.244
ACACATGA	0.0556
ACCGTCTG	-0.249
AGGATAGC	0.00991
AAATGGTG	-0.00957
TCAACTGA	0.124
CCCCGGCA	-0.125
AGGCATAG	0.0209
CATTACAG	0.0344
TCGTAGAA	-0.0839
ATAGGTGC	0.0698
CGAGATAA	0.226
CGGGTTAA	0.0877
CGCCATCA	-0.155
GGGGTGTA	-0.121
CATGACGG	0.125
AGCACCTA	-0.201
AACGCACC	-0.0612
ACTGTATC	-0.0153
ATACAGTC	-0.227
ATCTTCGC	0.194
GGAAATAA	0.214
AAAAGGGG	-0.0401
ATGGAATG	-0.0148
CGGTCCCA	-0.17

Sequence	PBM E-score
CCGGCGAA	0.0927
AGTAAGTA	0.154
ACCCTGTC	0.201
AATCCGGG	0.0178
CGTCACGA	-0.0766
CTCTCCCC	-0.223
AGGCACTC	-0.127
GCTTTTCA	-0.0478
CGGCTACA	-0.178
AATAGATA	0.22
AATGTTGT	-0.029
CTCGCGAG	0.257
GTCACGTA	-0.249
CCGCTGCG	-0.14
ACTGGTTC	0.0894
ACTATTAT	0.105
GGAGCCAC	-0.246
ATCGAGCA	0.0824
ATGGTCTC	-0.0514
CAAATGGG	0.0248
CCAACCAG	-0.0699
ATACGTAA	-0.0423
CGCAGGCA	-0.0766
CACGCCGA	0.0413
CTCTCTAC	0.119

Sequence	PBM E-score
ATGGGTGA	0.00137
CCGACACG	-0.0707
GTTCCACA	-0.101
CGGTCGCA	-0.018
GGGCACCA	-0.139
AAAAAATA	0.0567
CGGCGAAG	-0.0143
GTATTGAA	0.153
TATACCAA	0.13
AGTTCTCA	0.155
TCTGGCAA	-0.101
GCTATCAA	0.147
TGTCTCAA	-0.0475
GTCTACCA	-0.147
AACAAATC	0.0564
CGCGCGTA	0.133
AGGTTATG	0.0604
GATCTGGA	0.0104
AGCTCGAT	0.156
GAAGCTAA	-0.00529
CTGTAAAA	-0.00171
GCTACTCC	-0.0599
ACAGTATA	0.0828
GGACGTCA	0.00109
GGCATCTA	0.111

Sequence	PBM E-score
ACAAACTA	0.0968
ATTCTTAG	-0.0242
ACACCCTG	0.223
CCCCCGTC	-0.42
AATTCTCG	-0.0395
GGCATGAA	0.0895
AATGTAAT	0.139
AGAACGCC	-0.018
CCGCGTCC	-0.0349
AATGCAAA	0.244
GATTAACC	-0.222
ACCCCTCC	-0.248
AAGCCACT	-0.0519
CTAGCAAA	0.0319
AAGGAGAT	-0.0709
ACGAGACT	-0.139
CATTCGAC	0.049
CCGCAGGC	-0.0603
ACCCTACA	0.0936
AATTGGGC	-0.0483
CCTAGTGC	-0.0328
AAGCAGAA	0.117
GAAAGCTA	0.0593
GATTTTCA	-0.0417
AGGGGTAG	-0.0372

Sequence	PBM E-score
AGACAGTA	0.0173
AACGTCTG	0.0137
AATATCAT	0.0977
TCCACAAA	-0.0625
ACTCAACT	0.179
AATCCTAA	-0.0818
ACGATTTA	0.208
GGAATCCA	0.00282
GGTAACGA	-0.00769
ACGTATGA	0.0475
CTACGGCC	-0.0805
TGAATGCA	0.0182
CGTTCCCC	-0.0326
CCGGAATC	0.0538
CGGGGCAC	-0.111
CACCCACA	0.1
CCACGGGA	-0.00794
GATTATCC	0.043
TAGACCCA	0.0353
AGGTACAC	-0.073
AGGAAGGG	-0.192
AAAAAAAA	0.142
ACTGTAGC	-0.18
AATCTTGG	0.0117
CGGCCGTA	0.00647

Individual results from above:
Entry of ACTCAACT under PBM E-score: 0.179
Entry of AAAAAAAA under PBM E-score: 0.142
Entry of CCACGGGA under PBM E-score: -0.00794
Entry of TCCACAAA under PBM E-score: -0.0625
Entry of AGACAGTA under PBM E-score: 0.0173

Remaining list, next part.

Sequence	PBM E-score
CTCTAGCA	-0.216
CCGCCAGG	-0.204
CAGTGAGC	-0.0602
TCCTCCCA	-0.143
ATGGTACA	0.0537
AGGGGTTG	0.216
GAAGAAGC	-0.136
TGCGACAA	0.0655
ACCCGAAC	-0.0389
CGCCCCCA	-0.194
AACGCGGA	0.0806
GCCGGGGA	-0.0136
GGAGCCAA	-0.0987
ATAGCATA	0.161
GCTACTAA	-0.021
ATTAGGGG	0.185
AAGCGTGG	0.0382
AGAACGCT	-0.13
GACCTACA	0.0165
AAGAAATT	0.125
GACACGGA	0.0872
CCAATACG	-0.165
CTTACCCA	0.0294
TTCCAGAA	0.0408
AGGATCAG	-0.0684

Sequence	PBM E-score
GAGATACA	0.296
CTGCAATA	0.0882
ACTTCAGC	-0.206
GATAGGAA	-0.00607
GGATTACC	-0.0358
TGTGACAA	-0.073
GTTTCCTA	0.0716
ACAGCAAC	-0.00103
ATCCTAAG	-0.0575
AAAACGGA	0.0164
CATTGTAC	-0.0345
CGTATCAC	0.0413
CATGGTAG	0.00197
AAAGACGT	0.0439
GATACAAA	0.18
CAGCGGGG	-0.118
GGGGTCGA	0.0645
ATTATCGA	-0.00721
CATCATAC	0.0351
